Data source: PubChem BioAssay AID1259254 (NCATS, 2017)
Here is an unselected part of about 59,000 reagents tested. About 1,550 of them (2.6%) were called active. 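G2 share is only a proxy for re-replication; each gene was hit by three separate siRNAs, and active genes were retested.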 The raw values are shown without normalisation. Entries without a mark were called inactive. The numbers tell different reagents against one gene apart. Not stated in the record: the amount of reagent.

Aim: 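Genome-wide screen for genes that prevent DNA re-replication in cancer cells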 (primary screen)
Cells: human HCT116 colorectal cancer cells
Knock-down reagent: single siRNA against human genes
Duration: 3 days
Measured: 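Imaged Hoechst DNA stain sorts each cell into a cycle phase by DNA amount; per plate, G2 fraction set to 0% for non-targeting and 100% for GMNN siRNA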
Scale: G2 robust z-score and G2 cells, % of GMNN control: higher = more G2 cells, more excess DNA replication; raw share of cells in G2: higher = larger share of cells with G2 DNA content
Call rule: 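Active siRNAs have a G2 robust z of 5 or more median absolute deviations over the median, which in these data means about 38% or higher of GMNN control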

Target gene | siRNA no. | G2 robust z-score | G2 cells, % of GMNN control | raw share of cells in G2 (%)
SFRP1 (secreted frizzled related protein 1) | 1 | 0.173 | 4.18 | 6.75
SFRP1 (secreted frizzled related protein 1) | 2 | -0.592 | -1.2 | 3.75
SFRP1 (secreted frizzled related protein 1) | 3 | -0.683 | -1.84 | 2.69
TMEM179 (transmembrane protein 179) | 1 | 0.599 | 7.18 | 6.24
TMEM179 (transmembrane protein 179) | 2 | -0.362 | 0.422 | 3.59
TMEM179 (transmembrane protein 179) | 3 | -0.366 | 0.395 | 4.8
ZNF28 (zinc finger protein 28) | 1 | 1.48 | 13.4 | 7.97
ZNF28 (zinc finger protein 28) | 2 | -1.21 | -5.53 | 3.53
ZNF28 (zinc finger protein 28) | 3 | 0.0293 | 3.17 | 4.67
RAB11FIP5 (RAB11 family interacting protein 5) | 1 | -0.781 | -2.53 | 3.46
RAB11FIP5 (RAB11 family interacting protein 5) | 2 | -0.671 | -1.75 | 3.18
RAB11FIP5 (RAB11 family interacting protein 5) | 3 | -0.98 | -3.92 | 1.93
DBH (dopamine beta-hydroxylase) | 1 | 4.73 | 36.3 | 16.6
DBH (dopamine beta-hydroxylase) | 2 | 2.04 | 17.3 | 11.3
DBH (dopamine beta-hydroxylase) | 3 | 3.1 | 24.8 | 13.8
LRP12 (LDL receptor related protein 12) | 1 | 0.432 | 6 | 8.89
LRP12 (LDL receptor related protein 12) | 2 | 1.75 | 15.3 | 8.99
LRP12 (LDL receptor related protein 12) | 3 | -1.86 | -10.1 | 0.825
TTLL7 (tubulin tyrosine ligase like 7) | 1 | -1.24 | -5.77 | 3.03
TTLL7 (tubulin tyrosine ligase like 7) | 2 | 2.79 | 22.6 | 12.4
TTLL7 (tubulin tyrosine ligase like 7) | 3 | -0.417 | 0.0301 | 4.8
DEFA4 (defensin alpha 4) | 1 | -0.0934 | 2.31 | 4.43
DEFA4 (defensin alpha 4) | 2 | 0.703 | 7.91 | 9.01
DEFA4 (defensin alpha 4) | 3 | 0.156 | 4.07 | 5.58
MAD2L1BP (MAD2L1 binding protein) | 1 | -0.408 | 0.0999 | 5.38
MAD2L1BP (MAD2L1 binding protein) | 2 | 0.32 | 5.22 | 6.12
MAD2L1BP (MAD2L1 binding protein) | 3 | -0.581 | -1.12 | 3
CXCL16 (C-X-C motif chemokine ligand 16) | 1 | -0.913 | -3.46 | 2.97
CXCL16 (C-X-C motif chemokine ligand 16) | 2 | 0.801 | 8.6 | 7.39
CXCL16 (C-X-C motif chemokine ligand 16) | 3 | 6.88 (active) | 51.4 | 26.9
NKX2-8 (NK2 homeobox 8) | 1 | 3.05 | 24.4 | 12.3
NKX2-8 (NK2 homeobox 8) | 2 | -0.875 | -3.19 | 2.95
NKX2-8 (NK2 homeobox 8) | 3 | -0.677 | -1.79 | 5.35
ABHD1 (abhydrolase domain containing 1) | 1 | -0.714 | -2.05 | 4.03
ABHD1 (abhydrolase domain containing 1) | 2 | 0.902 | 9.32 | 7.57
ABHD1 (abhydrolase domain containing 1) | 3 | 3.14 | 25 | 15.9
ZNF221 (zinc finger protein 221) | 1 | -0.704 | -1.99 | 5.1
ZNF221 (zinc finger protein 221) | 2 | -0.381 | 0.284 | 3.46
ZNF221 (zinc finger protein 221) | 3 | 0.186 | 4.28 | 4.95
HTR3D (5-hydroxytryptamine receptor 3D) | 1 | 0.689 | 7.82 | 8.13
HTR3D (5-hydroxytryptamine receptor 3D) | 2 | 1.2 | 11.4 | 8.65
HTR3D (5-hydroxytryptamine receptor 3D) | 3 | 0.214 | 4.47 | 6.12
TCHP (trichoplein keratin filament binding) | 1 | -0.514 | -0.648 | 3.89
TCHP (trichoplein keratin filament binding) | 2 | -0.778 | -2.51 | 2.71
TCHP (trichoplein keratin filament binding) | 3 | 0.787 | 8.51 | 4.99
PRRC1 (proline rich coiled-coil 1) | 1 | 1.53 | 13.8 | 9.36
PRRC1 (proline rich coiled-coil 1) | 2 | -0.151 | 1.9 | 3.71
PRRC1 (proline rich coiled-coil 1) | 3 | -0.187 | 1.65 | 3.18

Reformatted: entries from further up.
TCHP (trichoplein keratin filament binding) #1
- G2 robust z-score: -0.514
- G2 cells, % of GMNN control: -0.648
- raw share of cells in G2 (%): 3.89

TCHP (trichoplein keratin filament binding) #2
- G2 robust z-score: -0.778
- G2 cells, % of GMNN control: -2.51
- raw share of cells in G2 (%): 2.71

TCHP (trichoplein keratin filament binding) #3
- G2 robust z-score: 0.787
- G2 cells, % of GMNN control: 8.51
- raw share of cells in G2 (%): 4.99

PRRC1 (proline rich coiled-coil 1) #1
- G2 robust z-score: 1.53
- G2 cells, % of GMNN control: 13.8
- raw share of cells in G2 (%): 9.36

PRRC1 (proline rich coiled-coil 1) #2
- G2 robust z-score: -0.151
- G2 cells, % of GMNN control: 1.9
- raw share of cells in G2 (%): 3.71

PRRC1 (proline rich coiled-coil 1) #3
- G2 robust z-score: -0.187
- G2 cells, % of GMNN control: 1.65
- raw share of cells in G2 (%): 3.18
